From paper PMC5351981

Chains of the proteins cited; added tags and fusions are not shown. Lines headed by an entry give the natural chain unless they say otherwise; changes in a name come on top.
UniProt Q08605: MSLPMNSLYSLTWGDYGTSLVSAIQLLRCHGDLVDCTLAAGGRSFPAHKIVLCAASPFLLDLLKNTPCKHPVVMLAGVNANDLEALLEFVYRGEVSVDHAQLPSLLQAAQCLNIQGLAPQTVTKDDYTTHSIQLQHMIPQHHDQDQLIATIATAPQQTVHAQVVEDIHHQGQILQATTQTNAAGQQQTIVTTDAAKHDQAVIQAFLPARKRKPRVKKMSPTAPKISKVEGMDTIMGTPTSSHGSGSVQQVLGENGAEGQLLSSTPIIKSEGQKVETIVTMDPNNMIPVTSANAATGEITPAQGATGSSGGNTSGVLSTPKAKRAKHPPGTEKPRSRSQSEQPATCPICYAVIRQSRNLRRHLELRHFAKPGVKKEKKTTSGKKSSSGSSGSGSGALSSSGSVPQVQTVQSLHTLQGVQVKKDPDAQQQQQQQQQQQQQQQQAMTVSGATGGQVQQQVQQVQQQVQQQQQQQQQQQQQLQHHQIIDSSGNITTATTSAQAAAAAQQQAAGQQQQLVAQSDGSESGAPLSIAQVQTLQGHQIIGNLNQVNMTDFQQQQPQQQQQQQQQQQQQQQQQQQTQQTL

Biological target: GAGA factor (GAF) (Drosophila melanogaster (endogenous in embryos)) (UniProt Q08605)
Assay: affinity purification with mass spectrometry; GAF polyclonal antibody coupled to protein A Sepharose; 10 mg nuclear extract of 0-12 h embryos, HEMG-150, 2 h; washed with HEMG-500 plus 0.1% Nonidet P-40; eluted with 0.1 M glycine pH 2.5; triplicate; mock: protein A Sepharose with no antibody

B1: Pita (protein, UniProt Q95RQ8 1-683)
chain: MAAKLEVREAMLTEKRVCRFCLTEQKLASIFEENPRVKTTANLPLQIMAITAIEVYAGDGMPGHICLECRLLFEHCYRFKQMCKRAETLLRQYPLTGNWPSPLEKPRAPMTMVASKKLLVVPAKTAEPSETPKKLLNTMAKSSSQVIIEDVQVLESAMVTPRTVAGSSPVPRRSHAYELKVDNNQELSMDDVQSMLEDMASELEKEFPDIPQKASPVKPKVLNKSSIRILNKGPAAPVEPRLATPKVKRDDSGNVAIVTEVLDSDLPLDDQDDPTKNAEKVATDVFPCPDCERSFPLQQLLEIHRLNHTRSRSFQCLLCEKSFFSKYDLAKHNFVHTGERPFKCAICSKAFTRKALLHRHERTHTDVPKFICVYCEKPFLSRQEMEKHAERHQKKRPFQCGVCTKSFAFKQGLERHETVHSTNLPFPCQHCERSFSTASKLARHLVAHAGKRAYPCKYCHKSYMLSHHLSRHLRTHTQTSDASFVCSECKVSYSNYNDLLDHALIHATASLKCPMCRKQIEDIDSVESHMDQHKQSERHACEFCDHIFLTQKCLQRHIEDDHVVEMEPYQNEFEDDGEGEGGVDEKEEHLDDFEDMDNVKQEEFVTEYLEDDALYEDHLDDSDESFTPPPPKQRKTNPPKDAQQSVRQTRSRDAQRITQKTGKNEGKPHHKLERNLKNRRSAK
- binding: binds

B2: Lola/BTB-IV (protein, UniProt P42283 1-891)
chain: MDDDQQFCLRWNNHQSTLISVFDTLLENETLVDCTLAAEGKFLKAHKVVLSACSPYFATLLQEQYDKHPIFILKDVKYQELRAMMDYMYRGEVNISQDQLAALLKAAESLQIKGLSDNRTGGGVAPKPESSGHHRGGKLSGAYTLEQTKRARLATGGAMDTSGDVSGSREGSSSPSRRRRKVRRRSMENDAHDNSNSSVLQAAASNQSILQQTGAGLAVSALVTTQLSSGPAAGTSSQASSTQQQQPLTSTNVTKKTESAKLTSSTAAPASGASASAAVQQAHLHQQQAQTTSDAINTENVQAQSQGGAQGVQGDDEDIDEGSAVGGPNSATGPNPASASASAVHAGVVVKQLASVVDKSSSNHKHKIKDNSVSSVGSEMVIEPKAEYDDDAHDENVEDLTLDEEDMTMEELDQTAGTSQGGEGSSQTYATWQHDRSQDELGLMAQDAQQRDPQDLSRKENTAPDVASTAEIQRSFQRSILNGKQRDEQKIQLPGSRRKRLSVTEVSDMLFEFYKTKSAKVPKAEQPHRQVSPTSGEILDPSTISAIAVYGTASETASKNLNADEVMRVQNATATRVVGAAAGAAASFHPRPKYTLKTAASSTEHTTAIPTSVLVANSAAALTPKPQAAVIAEALMRNGLHNFQQQLRAQEILRQQTPHRRIKEENDVEIAGGDITPTKILENLLRKQQERDLRHSECENEPGYSTEDDEEGRYHAFDDIHLMEQSGGKFGNNSGMGMFNANAHGGSASSILDAHQAFRNLEFTLSDYGGSSSNGSTTSPNGIGLDGEPVYECRHCGKKYRWKSTLRRHENVECGGKEPSHQCPYCPYKSKQRGNLGVHVRKHHTDLPQLPSKRRSKYSMNRENGMSGSMSDDSQGKLIIDFNGKGELETK
- binding: binds

These are yes or no findings as the source states them, for the method shown. In cells and extracts the contact can be indirect. A yes stands for co-enrichment or nearness to the bait. Other partners may have been found.
